According to the supplement of paper PMC7661543:
± gives the standard deviation of the averaged measurements. The effect of the compound repeats well; differences between the knockouts mostly do not.

Tested on: ZR-75-1
Experiment: relative cell number vs DMSO control (72 h) (% of DMSO); higher = less growth inhibition (more cells)
Protocol: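 QMAP-Seq: a pool of 5 breast cancer cell lines (ZR-75-1, SKBR3, HCC-38, MDA-MB-231, BT-20), each carrying 12 doxycycline-inducible Cas9 sgRNA perturbations (11 knockouts plus non-targeting sgNT), was treated with compounds for 72 h at four 10-fold doses (10 nM-10 uM or 1 nM-1 uM range). Barcodes were amplified and sequenced, and cell number was interpolated from 293T spike-in standard curves. The result is expressed as % of the median of DMSO wells. Two biological replicates.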

[1] = sgRNA knockout: sgATF3, 1000 nM
[2] = sgRNA knockout: sgATF3, 10000 nM
[3] = sgRNA knockout: sgATF4, 1000 nM
[4] = sgRNA knockout: sgATF4, 10000 nM
[5] = sgRNA knockout: sgATF6, 1000 nM
[6] = sgRNA knockout: sgATF6, 10000 nM
[7] = sgRNA knockout: sgATG7, 1000 nM
[8] = sgRNA knockout: sgATG7, 10000 nM
[9] = sgRNA knockout: sgERN1, 1000 nM
[10] = sgRNA knockout: sgERN1, 10000 nM
[11] = sgRNA knockout: sgHSF2, 1000 nM
[12] = sgRNA knockout: sgHSF2, 10000 nM
[13] = sgRNA knockout: sgNFE2L2, 10 nM
[14] = sgRNA knockout: sgNFE2L2, 100 nM
[15] = sgRNA knockout: sgNFE2L2, 1000 nM
[16] = sgRNA knockout: sgNFE2L2, 10000 nM
[17] = sgRNA knockout: sgSLC35F2, 10 nM
[18] = sgRNA knockout: sgSLC35F2, 100 nM
[19] = sgRNA knockout: sgSLC35F2, 1000 nM
[20] = sgRNA knockout: sgSLC35F2, 10000 nM
[21] = sgRNA knockout: sgXBP1, 1000 nM
[22] = sgRNA knockout: sgXBP1, 10000 nM

Row | Structure (SMILES) | relative cell number (sgRNA knockout: sgATF3, 10 nM) | relative cell number (sgRNA knockout: sgATF3, 100 nM) | relative cell number [1] | relative cell number (sgRNA knockout: sgATF4, 10 nM) | relative cell number (sgRNA knockout: sgATF4, 100 nM) | relative cell number [3] | relative cell number (sgRNA knockout: sgATF6, 10 nM) | relative cell number (sgRNA knockout: sgATF6, 100 nM) | relative cell number [5] | relative cell number (sgRNA knockout: sgATG7, 10 nM) | relative cell number (sgRNA knockout: sgATG7, 100 nM) | relative cell number [7] | relative cell number (sgRNA knockout: sgERN1, 10 nM) | relative cell number (sgRNA knockout: sgERN1, 100 nM) | relative cell number [9] | relative cell number (sgRNA knockout: sgHSF2, 10 nM) | relative cell number (sgRNA knockout: sgHSF2, 100 nM) | relative cell number [11] | relative cell number [13] | relative cell number [14] | also measured
1 | CC(C)C[C@H](NC(=O)CNC(=O)c1cc(Cl)ccc1Cl)B(O)O [MLN2238] | 156 ± 11 | 76.1 ± 2 | 38.1 ± 12 | 84.1 ± 14 | 93.9 ± 29 | 33.7 ± 2.2 | 72.2 ± 12 | 73.1 ± 29 | 32.5 ± 14 | 138 ± 12 | 113 ± 40 | 45 ± 11 | 112 ± 16 | 108 ± 7.4 | 46.7 ± 5.3 | 145 ± 26 | 99.3 ± 9.2 | 37.9 ± 1.3 | 97.1 ± 18 | 55.8 ± 7.3 | relative cell number [2]: 18.2 ± 4.6; relative cell number [4]: 13.7 ± 7.5; relative cell number [6]: 13.2 ± 7.5; relative cell number [8]: 7.77 ± 0.67; relative cell number [10]: 13.1 ± 3.4; relative cell number [12]: 12 ± 1.8; relative cell number [15]: 21.7 ± 7.6; relative cell number [16]: 10.2 ± 2.8; relative cell number [17]: 92 ± 35; relative cell number [18]: 99.1 ± 58; relative cell number [19]: 16.1 ± 12; relative cell number [20]: 10.4 ± 1.4; relative cell number (sgRNA knockout: sgXBP1, 10 nM): 95.3 ± 8.2; relative cell number (sgRNA knockout: sgXBP1, 100 nM): 71.9 ± 17; relative cell number [21]: 35.2 ± 7.8; relative cell number [22]: 10.4 ± 5.5
2 | CCC[C@H](NC(=O)/C(C#N)=C/c1cccc(Br)n1)c1ccccc1 [WP1130] | 107 ± 18 | 106.1 ± 0.25 | 85.5 ± 14 | 84.4 ± 2.5 | 117 ± 8.8 | 131 ± 12 | 105 ± 21 | 56.9 ± 14 | 118 ± 22 | 114 ± 30 | 91 ± 27 | 75.5 ± 15 | 86.5 ± 2.8 | 105.7 ± 0.49 | 105 ± 19 | 112 ± 2.2 | 119 ± 6.2 | 75.8 ± 8.2 | 99.33 ± 0.27 | 118 ± 18 | relative cell number [2]: 6.45 ± 1.6; relative cell number [4]: 8.63 ± 1.7; relative cell number [6]: 6.51 ± 2.1; relative cell number [8]: 4.4 ± 0.27; relative cell number [10]: 11.6 ± 7.5; relative cell number [12]: 8.08 ± 3.8; relative cell number [15]: 95.1 ± 15; relative cell number [16]: 9.78 ± 5.9; relative cell number [17]: 64 ± 9; relative cell number [18]: 69.4 ± 46; relative cell number [19]: 63.5 ± 13; relative cell number [20]: 6.99 ± 3.2; relative cell number (sgRNA knockout: sgXBP1, 10 nM): 99.4 ± 13; relative cell number (sgRNA knockout: sgXBP1, 100 nM): 102 ± 29; relative cell number [21]: 89.7 ± 5.8; relative cell number [22]: 8.27 ± 2.5
3 | CN(C)/N=N/c1[nH]cnc1C(N)=O [Dacarbazine] | 81 ± 20 | 104 ± 9.2 | 109 ± 7 | 130 ± 46 | 99.4 ± 12 | 102 ± 32 | 102 ± 27 | 94.5 ± 2.9 | 103 ± 23 | 68.1 ± 10 | 89.3 ± 14 | 102 ± 39 | 95.5 ± 36 | 123 ± 18 | 88.6 ± 11 | 89.5 ± 15 | 93.8 ± 2.7 | 120 ± 23 | 150 ± 1.6 | 114 ± 24 | relative cell number [2]: 108 ± 32; relative cell number [4]: 114 ± 1.4; relative cell number [6]: 95 ± 36; relative cell number [8]: 96.9 ± 19; relative cell number [10]: 85.6 ± 12; relative cell number [12]: 113 ± 47; relative cell number [15]: 91.5 ± 15; relative cell number [16]: 126 ± 2.7; relative cell number [17]: 70.8 ± 40; relative cell number [18]: 73.7 ± 5.3; relative cell number [19]: 74.2 ± 22; relative cell number [20]: 68.7 ± 56; relative cell number (sgRNA knockout: sgXBP1, 10 nM): 123 ± 1.7; relative cell number (sgRNA knockout: sgXBP1, 100 nM): 107 ± 14; relative cell number [21]: 84.9 ± 11; relative cell number [22]: 100 ± 21
4 | CCNC(=O)c1noc(-c2cc(C(C)C)c(O)cc2O)c1-c1ccc(CN2CCOCC2)cc1 [NVPAUY922] | 97.9 ± 2 | 30.3 ± 5.2 | 22.5 ± 6.5 | 83.1 ± 50 | 36.5 ± 19 | 15.8 ± 6.8 | 108 ± 9.1 | 20.7 ± 5.4 | 19.4 ± 11 | 62 ± 7.9 | 21 ± 1.7 | 20.7 ± 2.8 | 97.7 ± 3 | 35.4 ± 9.2 | 28.7 ± 9.8 | 73.6 ± 9.3 | 28.1 ± 1.6 | 21.5 ± 2.1 | 104 ± 1.6 | 24 ± 5.1 | relative cell number (sgRNA knockout: sgATF3, 1 nM): 90.9 ± 22; relative cell number (sgRNA knockout: sgATF4, 1 nM): 130 ± 8.1; relative cell number (sgRNA knockout: sgATF6, 1 nM): 78.4 ± 3.9; relative cell number (sgRNA knockout: sgATG7, 1 nM): 122 ± 8.7; relative cell number (sgRNA knockout: sgERN1, 1 nM): 96.5 ± 18; relative cell number (sgRNA knockout: sgHSF2, 1 nM): 117 ± 23; relative cell number (sgRNA knockout: sgNFE2L2, 1 nM): 128 ± 37; relative cell number [15]: 21.5 ± 4.8; relative cell number (sgRNA knockout: sgSLC35F2, 1 nM): 51.7 ± 39; relative cell number [17]: 86 ± 44; relative cell number [18]: 17.3 ± 6.3; relative cell number [19]: 18.8 ± 13; relative cell number (sgRNA knockout: sgXBP1, 1 nM): 115 ± 27; relative cell number (sgRNA knockout: sgXBP1, 10 nM): 94.4 ± 9.2; relative cell number (sgRNA knockout: sgXBP1, 100 nM): 25.2 ± 0.99; relative cell number [21]: 25.8 ± 5.4
5 | CN1CCc2c(c3ccccc3n2Cc2ccc(C(=O)NO)cc2)C1 [TubastatinA] | 109 ± 16 | 83.9 ± 3.3 | 116 ± 69 | 71.8 ± 20 | 60.1 ± 26 | 93.2 ± 32 | 66.4 ± 22 | 73.9 ± 8 | 57.1 ± 7.5 | 82.1 ± 16 | 97.1 ± 30 | 104 ± 42 | 77.5 ± 0.99 | 79 ± 8 | 86.7 ± 3.3 | 116 ± 1.7 | 108 ± 17 | 103 ± 52 | 109 ± 28 | 101 ± 20 | relative cell number [2]: 79.2 ± 3.9; relative cell number [4]: 67.5 ± 4.6; relative cell number [6]: 73.8 ± 12; relative cell number [8]: 47.9 ± 9.5; relative cell number [10]: 72.9 ± 2.9; relative cell number [12]: 65.27 ± 0.53; relative cell number [15]: 91.4 ± 4.2; relative cell number [16]: 63.3 ± 11; relative cell number [17]: 77.8 ± 22; relative cell number [18]: 73.4 ± 12; relative cell number [19]: 76.4 ± 29; relative cell number [20]: 42.2 ± 12; relative cell number (sgRNA knockout: sgXBP1, 10 nM): 92 ± 9.4; relative cell number (sgRNA knockout: sgXBP1, 100 nM): 91.44 ± 0.11; relative cell number [21]: 103 ± 9.7; relative cell number [22]: 63.4 ± 3.5
6 | N.N.[Cl][Pt][Cl] [Cisplatin] | 108 ± 32 | 93.5 ± 3.7 | 117 ± 2.7 | 94.5 ± 7.8 | 79.7 ± 7.2 | 137 ± 52 | 95 ± 34 | 80.9 ± 15 | 90.1 ± 9.7 | 107 ± 3.6 | 87.8 ± 21 | 86.9 ± 29 | 93.9 ± 18 | 85.6 ± 1.8 | 113 ± 68 | 90.8 ± 2.9 | 95.4 ± 5 | 123 ± 26 | 144 ± 19 | 82.9 ± 17 | relative cell number [2]: 98.8 ± 3.1; relative cell number [4]: 73.8 ± 20; relative cell number [6]: 151 ± 65; relative cell number [8]: 94.8 ± 13; relative cell number [10]: 98 ± 10; relative cell number [12]: 93.6 ± 22; relative cell number [15]: 122 ± 8.9; relative cell number [16]: 102 ± 18; relative cell number [17]: 116 ± 44; relative cell number [18]: 92 ± 68; relative cell number [19]: 117 ± 34; relative cell number [20]: 83.5 ± 13; relative cell number (sgRNA knockout: sgXBP1, 10 nM): 114 ± 8.5; relative cell number (sgRNA knockout: sgXBP1, 100 nM): 82.3 ± 9; relative cell number [21]: 128 ± 4.8; relative cell number [22]: 94.5 ± 1.4
